Results published in publication PMC6428754, “Peptidoglycan Remodeling Enables Escherichia coli To Survive Severe Outer Membrane Assembly Defect” (mBio, 2019).
These are yes or no findings as the source states them, for the method shown. Some results given as binding are weak or reduced against the parent protein; the word gives no strength. Where a sequence is shown, tags or fusion partners need not be part of it.

What was measured:
[1] = target: T1, oligohistidine-tagged PBP1A (E. coli) (UniProt P02918); assay: pull-down; purified oligohistidine-tagged protein mixed with untagged LdtD, binding to Ni2+-NTA beads, Coomassie-stained SDS-PAGE of applied and eluted fractions; both purified
T1 sequence: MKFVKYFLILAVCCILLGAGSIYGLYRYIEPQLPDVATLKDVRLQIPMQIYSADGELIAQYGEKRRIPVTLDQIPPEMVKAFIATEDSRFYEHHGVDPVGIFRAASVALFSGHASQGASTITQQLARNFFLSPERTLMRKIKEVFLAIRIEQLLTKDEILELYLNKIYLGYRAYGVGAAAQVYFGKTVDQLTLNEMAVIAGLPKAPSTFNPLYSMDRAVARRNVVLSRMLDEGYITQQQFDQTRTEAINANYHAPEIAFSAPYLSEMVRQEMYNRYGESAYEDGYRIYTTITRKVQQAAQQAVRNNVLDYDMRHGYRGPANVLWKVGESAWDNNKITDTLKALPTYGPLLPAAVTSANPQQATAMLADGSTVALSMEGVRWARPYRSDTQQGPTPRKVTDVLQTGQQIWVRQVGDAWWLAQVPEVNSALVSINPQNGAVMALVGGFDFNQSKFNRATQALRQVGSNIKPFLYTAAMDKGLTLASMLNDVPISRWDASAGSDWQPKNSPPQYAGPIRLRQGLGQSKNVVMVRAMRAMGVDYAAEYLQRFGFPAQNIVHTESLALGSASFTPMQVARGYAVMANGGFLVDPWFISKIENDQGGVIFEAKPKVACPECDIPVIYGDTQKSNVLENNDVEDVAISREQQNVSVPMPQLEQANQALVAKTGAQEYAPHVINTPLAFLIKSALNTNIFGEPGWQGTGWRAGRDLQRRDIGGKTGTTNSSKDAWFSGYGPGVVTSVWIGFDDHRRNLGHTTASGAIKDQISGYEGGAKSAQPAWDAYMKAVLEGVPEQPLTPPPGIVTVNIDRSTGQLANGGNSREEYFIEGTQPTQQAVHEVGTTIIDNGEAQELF

[2] = target: T2, oligohistidine-tagged LpoB (E. coli) (UniProt P0AB38); assay: as above
T2 sequence: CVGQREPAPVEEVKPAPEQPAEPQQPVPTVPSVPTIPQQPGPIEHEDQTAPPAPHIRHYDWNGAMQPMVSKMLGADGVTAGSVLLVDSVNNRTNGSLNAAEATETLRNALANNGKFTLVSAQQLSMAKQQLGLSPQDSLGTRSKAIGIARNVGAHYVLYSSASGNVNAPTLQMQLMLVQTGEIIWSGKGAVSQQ

[3] = target: T3, oligohistidine-tagged PBP1B (E. coli, UniProt P02919 1-844); assay: as above
T3 construct: PBP1B, bifunctional peptidoglycan synthase (glycosyltransferase and DD-transpeptidase) of Escherichia coli; source: purified
T3 sequence (looked up): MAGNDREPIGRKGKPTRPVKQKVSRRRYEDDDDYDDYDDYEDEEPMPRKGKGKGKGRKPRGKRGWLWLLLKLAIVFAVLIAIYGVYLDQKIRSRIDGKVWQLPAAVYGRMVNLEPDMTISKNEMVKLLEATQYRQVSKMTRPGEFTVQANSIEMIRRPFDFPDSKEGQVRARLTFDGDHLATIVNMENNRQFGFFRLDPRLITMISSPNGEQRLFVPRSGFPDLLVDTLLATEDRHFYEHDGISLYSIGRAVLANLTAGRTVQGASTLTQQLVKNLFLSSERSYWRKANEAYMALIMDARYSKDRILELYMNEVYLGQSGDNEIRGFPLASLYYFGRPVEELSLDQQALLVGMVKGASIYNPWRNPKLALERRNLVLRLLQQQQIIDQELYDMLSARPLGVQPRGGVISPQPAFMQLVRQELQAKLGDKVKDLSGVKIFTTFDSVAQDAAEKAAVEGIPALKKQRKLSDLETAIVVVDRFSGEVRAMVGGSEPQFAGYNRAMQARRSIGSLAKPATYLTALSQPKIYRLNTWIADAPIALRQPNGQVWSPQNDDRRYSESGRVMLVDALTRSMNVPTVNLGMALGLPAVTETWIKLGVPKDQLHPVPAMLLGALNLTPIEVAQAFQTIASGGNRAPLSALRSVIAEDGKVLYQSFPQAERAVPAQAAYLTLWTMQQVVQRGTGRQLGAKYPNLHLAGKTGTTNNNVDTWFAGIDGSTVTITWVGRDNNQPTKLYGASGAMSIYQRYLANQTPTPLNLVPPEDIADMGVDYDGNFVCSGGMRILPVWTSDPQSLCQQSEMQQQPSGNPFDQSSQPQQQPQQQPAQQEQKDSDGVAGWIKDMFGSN

[4] = target: T1, oligohistidine-tagged PBP1A (E. coli); assay: MST; microscale thermophoresis curves; means ± SD from three independent experiments; which partner was labelled is not told (Text S1); both purified

B1: LdtD (LD-transpeptidase, formerly YcbB), untagged (enzyme, E. coli, UniProt P22525 1-615, looked up)
chain: MLLNMMCGRQLSAISLCLAVTFAPLFNAQADEPEVIPGDSPVAVSEQGEALPQAQATAIMAGIQPLPEGAAEKARTQIESQLPAGYKPVYLNQLQLLYAARDMQPMWENRDAVKAFQQQLAEVAIAGFQPQFNKWVELLTDPGVNGMARDVVLSDAMMGYLHFIANIPVKGTRWLYSSKPYALATPPLSVINQWQLALDKGQLPTFVAGLAPQHPQYAAMHESLLALLCDTKPWPQLTGKATLRPGQWSNDVPALREILQRTGMLDGGPKITLPGDDTPTDAVVSPSAVTVETAETKPMDKQTTSRSKPAPAVRAAYDNELVEAVKRFQAWQGLGADGAIGPATRDWLNVTPAQRAGVLALNIQRLRLLPTELSTGIMVNIPAYSLVYYQNGNQVLDSRVIVGRPDRKTPMMSSALNNVVVNPPWNVPPTLARKDILPKVRNDPGYLESHGYTVMRGWNSREAIDPWQVDWSTITASNLPFRFQQAPGPRNSLGRYKFNMPSSEAIYLHDTPNHNLFKRDTRALSSGCVRVNKASDLANMLLQDAGWNDKRISDALKQGDTRYVNIRQSIPVNLYYLTAFVGADGRTQYRTDIYNYDLPARSSSQIVSKAEQLIR
notes: LdtD (formerly YcbB), LD-transpeptidase of Escherichia coli; Printed as 'untagged LdtD'; source: purified
binding [1]: no binding | binding [2]: no binding | binding [3]: binds | binding [4]: no binding
